According to PMC4231120:
No constants are given. Whether binding was seen depends on the method and setting. In cells and extracts the contact can be indirect. Here binding means that the protein was enriched with, or labelled near, the bait; the list need not be complete. Where a sequence is shown, tags or fusion partners need not be part of it.

Chains of the proteins cited; added tags and fusions are not shown. Lines headed by an entry give the natural chain unless they say otherwise; changes in a name come on top. Residues count along the entry.
UniProt Q0WNJ6: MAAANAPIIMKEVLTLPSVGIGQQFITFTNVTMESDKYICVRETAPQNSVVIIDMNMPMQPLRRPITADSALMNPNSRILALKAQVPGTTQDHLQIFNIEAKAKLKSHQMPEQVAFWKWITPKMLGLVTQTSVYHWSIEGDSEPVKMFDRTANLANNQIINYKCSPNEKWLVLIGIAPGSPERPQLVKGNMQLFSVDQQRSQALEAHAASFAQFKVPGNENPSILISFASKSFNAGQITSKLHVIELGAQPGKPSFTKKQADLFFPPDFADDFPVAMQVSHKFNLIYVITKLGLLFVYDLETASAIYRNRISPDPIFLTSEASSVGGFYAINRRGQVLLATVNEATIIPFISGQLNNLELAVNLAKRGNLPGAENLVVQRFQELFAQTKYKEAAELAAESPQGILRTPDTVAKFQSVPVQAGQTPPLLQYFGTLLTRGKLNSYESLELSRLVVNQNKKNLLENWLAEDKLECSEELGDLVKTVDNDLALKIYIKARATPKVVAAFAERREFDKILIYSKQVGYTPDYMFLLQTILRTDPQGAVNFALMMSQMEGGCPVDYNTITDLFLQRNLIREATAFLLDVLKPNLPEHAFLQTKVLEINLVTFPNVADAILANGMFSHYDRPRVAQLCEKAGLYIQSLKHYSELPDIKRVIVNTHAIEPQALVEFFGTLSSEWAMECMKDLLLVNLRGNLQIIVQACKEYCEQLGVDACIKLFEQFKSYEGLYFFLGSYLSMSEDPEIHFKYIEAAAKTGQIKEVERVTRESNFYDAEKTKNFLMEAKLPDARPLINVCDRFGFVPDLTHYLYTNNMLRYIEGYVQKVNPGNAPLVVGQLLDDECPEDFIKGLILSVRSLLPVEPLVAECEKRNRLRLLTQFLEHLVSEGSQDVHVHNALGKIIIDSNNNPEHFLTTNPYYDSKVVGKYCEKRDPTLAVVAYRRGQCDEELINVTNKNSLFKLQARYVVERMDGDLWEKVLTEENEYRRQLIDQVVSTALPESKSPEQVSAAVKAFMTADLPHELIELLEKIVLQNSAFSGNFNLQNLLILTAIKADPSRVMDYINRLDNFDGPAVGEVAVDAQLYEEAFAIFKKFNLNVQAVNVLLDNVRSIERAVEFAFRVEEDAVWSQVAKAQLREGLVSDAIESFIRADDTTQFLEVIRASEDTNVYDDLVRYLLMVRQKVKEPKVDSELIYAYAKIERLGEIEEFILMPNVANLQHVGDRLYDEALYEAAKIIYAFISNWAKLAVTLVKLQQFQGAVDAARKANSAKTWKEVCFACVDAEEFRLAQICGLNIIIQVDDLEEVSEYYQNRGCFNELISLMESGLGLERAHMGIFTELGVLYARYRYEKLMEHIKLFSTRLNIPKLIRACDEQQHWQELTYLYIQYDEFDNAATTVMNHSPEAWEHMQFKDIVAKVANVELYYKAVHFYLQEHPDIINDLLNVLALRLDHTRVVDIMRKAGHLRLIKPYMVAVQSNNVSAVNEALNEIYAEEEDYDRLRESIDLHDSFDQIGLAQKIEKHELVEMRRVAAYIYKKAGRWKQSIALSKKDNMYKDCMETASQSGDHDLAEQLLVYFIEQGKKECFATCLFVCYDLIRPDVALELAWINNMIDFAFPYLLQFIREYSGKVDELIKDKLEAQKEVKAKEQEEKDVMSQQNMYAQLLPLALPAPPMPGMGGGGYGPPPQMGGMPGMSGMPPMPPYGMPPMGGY
UniProt P29514: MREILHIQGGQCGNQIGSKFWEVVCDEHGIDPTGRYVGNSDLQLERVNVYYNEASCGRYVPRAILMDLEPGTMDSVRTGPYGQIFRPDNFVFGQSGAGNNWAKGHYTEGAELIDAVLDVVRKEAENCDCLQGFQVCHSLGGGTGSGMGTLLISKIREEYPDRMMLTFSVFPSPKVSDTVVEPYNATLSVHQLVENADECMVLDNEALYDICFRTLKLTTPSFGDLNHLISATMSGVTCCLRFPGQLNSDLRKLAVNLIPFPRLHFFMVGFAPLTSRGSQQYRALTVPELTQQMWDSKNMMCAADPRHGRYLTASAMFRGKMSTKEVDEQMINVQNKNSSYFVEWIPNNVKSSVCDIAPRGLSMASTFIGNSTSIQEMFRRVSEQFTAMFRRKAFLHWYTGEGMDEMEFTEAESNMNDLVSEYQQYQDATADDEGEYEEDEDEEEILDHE
UniProt P37702, residues 20-541: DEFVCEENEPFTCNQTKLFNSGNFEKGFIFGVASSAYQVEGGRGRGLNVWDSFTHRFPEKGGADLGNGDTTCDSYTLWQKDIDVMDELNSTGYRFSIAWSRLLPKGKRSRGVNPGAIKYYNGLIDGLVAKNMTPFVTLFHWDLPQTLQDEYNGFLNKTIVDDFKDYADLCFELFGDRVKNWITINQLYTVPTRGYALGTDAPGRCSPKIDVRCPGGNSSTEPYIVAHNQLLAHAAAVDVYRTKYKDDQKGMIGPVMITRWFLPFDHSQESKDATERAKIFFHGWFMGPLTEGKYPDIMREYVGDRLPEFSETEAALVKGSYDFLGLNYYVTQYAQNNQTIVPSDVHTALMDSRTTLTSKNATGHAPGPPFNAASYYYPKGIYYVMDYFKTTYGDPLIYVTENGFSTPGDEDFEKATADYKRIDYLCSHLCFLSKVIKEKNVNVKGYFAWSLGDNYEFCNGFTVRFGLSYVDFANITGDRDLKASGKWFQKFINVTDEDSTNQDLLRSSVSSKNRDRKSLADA
UniProt Q9LFA3: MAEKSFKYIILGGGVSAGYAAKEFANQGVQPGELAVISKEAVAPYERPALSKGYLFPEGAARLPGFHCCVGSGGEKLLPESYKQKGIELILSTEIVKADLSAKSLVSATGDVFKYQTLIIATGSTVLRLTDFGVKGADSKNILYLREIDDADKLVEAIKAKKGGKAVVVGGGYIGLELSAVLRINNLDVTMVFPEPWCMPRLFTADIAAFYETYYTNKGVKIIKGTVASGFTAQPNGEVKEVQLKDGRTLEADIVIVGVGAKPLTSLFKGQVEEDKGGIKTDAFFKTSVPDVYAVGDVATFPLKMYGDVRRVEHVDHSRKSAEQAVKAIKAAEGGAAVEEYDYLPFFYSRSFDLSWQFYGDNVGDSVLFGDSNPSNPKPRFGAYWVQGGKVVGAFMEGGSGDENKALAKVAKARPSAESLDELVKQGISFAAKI
UniProt Q9SJT9: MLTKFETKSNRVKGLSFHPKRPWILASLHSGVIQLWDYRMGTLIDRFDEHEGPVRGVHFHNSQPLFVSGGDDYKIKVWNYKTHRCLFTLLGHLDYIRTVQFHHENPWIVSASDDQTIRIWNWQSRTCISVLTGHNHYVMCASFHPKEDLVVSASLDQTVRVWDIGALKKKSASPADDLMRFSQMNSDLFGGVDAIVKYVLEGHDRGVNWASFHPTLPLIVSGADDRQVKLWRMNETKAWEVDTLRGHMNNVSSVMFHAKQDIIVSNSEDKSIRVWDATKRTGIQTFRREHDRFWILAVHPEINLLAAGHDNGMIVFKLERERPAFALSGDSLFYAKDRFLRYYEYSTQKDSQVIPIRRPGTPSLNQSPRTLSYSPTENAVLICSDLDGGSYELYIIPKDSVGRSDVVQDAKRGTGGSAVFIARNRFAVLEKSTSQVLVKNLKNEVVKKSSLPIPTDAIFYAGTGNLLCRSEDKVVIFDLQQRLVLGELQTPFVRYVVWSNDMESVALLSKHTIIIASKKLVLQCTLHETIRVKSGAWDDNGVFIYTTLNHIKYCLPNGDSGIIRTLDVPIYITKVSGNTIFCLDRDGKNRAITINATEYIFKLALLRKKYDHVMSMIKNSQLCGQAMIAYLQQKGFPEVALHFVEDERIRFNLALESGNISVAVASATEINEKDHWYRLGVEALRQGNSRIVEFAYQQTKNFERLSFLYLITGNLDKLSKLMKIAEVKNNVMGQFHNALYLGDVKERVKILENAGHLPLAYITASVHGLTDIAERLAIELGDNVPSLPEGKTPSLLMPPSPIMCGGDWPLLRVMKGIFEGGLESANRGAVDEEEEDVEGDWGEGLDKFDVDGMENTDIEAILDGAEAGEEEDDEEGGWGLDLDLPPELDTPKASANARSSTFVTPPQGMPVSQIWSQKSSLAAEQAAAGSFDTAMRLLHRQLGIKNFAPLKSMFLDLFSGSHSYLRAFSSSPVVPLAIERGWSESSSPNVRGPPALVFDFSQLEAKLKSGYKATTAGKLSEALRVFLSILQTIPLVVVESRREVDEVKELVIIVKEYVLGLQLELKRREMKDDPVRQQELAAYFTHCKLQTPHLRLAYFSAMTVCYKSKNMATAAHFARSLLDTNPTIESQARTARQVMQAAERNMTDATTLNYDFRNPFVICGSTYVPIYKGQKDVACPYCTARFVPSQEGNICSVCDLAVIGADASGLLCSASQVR
UniProt Q9FVT2: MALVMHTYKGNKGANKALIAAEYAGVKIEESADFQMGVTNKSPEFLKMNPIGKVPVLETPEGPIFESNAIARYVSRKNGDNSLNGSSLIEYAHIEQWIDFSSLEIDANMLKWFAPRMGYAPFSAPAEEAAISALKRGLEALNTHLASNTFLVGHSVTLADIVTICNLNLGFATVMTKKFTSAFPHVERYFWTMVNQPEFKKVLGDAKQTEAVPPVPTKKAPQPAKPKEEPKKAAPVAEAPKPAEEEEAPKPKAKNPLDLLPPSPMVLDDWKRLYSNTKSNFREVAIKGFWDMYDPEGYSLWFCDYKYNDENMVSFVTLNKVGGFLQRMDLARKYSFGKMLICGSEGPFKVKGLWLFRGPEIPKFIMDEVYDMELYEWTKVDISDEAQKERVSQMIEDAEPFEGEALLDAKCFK
UniProt P29516: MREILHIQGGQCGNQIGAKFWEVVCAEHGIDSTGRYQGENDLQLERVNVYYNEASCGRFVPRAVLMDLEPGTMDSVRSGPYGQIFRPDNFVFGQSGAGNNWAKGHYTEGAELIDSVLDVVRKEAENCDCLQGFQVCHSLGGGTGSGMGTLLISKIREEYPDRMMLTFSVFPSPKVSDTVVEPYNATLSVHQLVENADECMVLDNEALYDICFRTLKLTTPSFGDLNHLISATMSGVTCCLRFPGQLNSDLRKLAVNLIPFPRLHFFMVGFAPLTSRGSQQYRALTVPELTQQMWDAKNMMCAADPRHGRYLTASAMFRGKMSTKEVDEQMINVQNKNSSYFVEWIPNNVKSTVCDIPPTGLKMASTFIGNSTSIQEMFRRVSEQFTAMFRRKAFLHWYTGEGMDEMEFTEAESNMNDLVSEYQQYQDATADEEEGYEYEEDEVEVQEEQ
UniProt Q9M9P3: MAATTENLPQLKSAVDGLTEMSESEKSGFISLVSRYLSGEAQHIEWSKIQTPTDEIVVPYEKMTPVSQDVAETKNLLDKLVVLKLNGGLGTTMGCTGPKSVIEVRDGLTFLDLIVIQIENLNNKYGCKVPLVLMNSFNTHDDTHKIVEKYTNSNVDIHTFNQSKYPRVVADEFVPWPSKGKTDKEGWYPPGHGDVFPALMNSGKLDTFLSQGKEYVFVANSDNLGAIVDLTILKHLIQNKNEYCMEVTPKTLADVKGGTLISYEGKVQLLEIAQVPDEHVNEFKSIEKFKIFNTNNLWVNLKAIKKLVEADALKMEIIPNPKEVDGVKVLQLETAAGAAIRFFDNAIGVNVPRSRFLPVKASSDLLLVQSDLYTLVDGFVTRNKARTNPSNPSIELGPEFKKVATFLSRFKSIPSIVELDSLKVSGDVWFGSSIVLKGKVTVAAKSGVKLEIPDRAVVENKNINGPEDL
UniProt Q9LKR3, residues 28-669: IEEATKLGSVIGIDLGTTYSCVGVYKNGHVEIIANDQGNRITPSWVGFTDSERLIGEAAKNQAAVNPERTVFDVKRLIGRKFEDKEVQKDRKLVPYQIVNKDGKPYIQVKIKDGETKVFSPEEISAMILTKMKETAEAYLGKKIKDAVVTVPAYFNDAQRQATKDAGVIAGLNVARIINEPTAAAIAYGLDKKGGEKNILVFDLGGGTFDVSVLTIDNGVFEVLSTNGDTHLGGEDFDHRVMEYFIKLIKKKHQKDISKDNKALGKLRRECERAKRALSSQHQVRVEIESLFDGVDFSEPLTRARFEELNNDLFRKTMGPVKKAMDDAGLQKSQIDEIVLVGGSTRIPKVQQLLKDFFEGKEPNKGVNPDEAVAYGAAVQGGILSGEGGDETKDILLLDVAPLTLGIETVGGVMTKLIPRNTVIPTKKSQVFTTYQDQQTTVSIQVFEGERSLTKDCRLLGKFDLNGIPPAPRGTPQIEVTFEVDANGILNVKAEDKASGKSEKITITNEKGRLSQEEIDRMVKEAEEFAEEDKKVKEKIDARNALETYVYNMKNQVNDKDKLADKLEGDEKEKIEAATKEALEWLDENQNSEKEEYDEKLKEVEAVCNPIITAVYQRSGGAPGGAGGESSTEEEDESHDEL

T1: PLASMODESMATA-LOCATED PROTEIN 1 (PDLP1) fused to GFP (Arabidopsis) (UniProt Q8GXV7)
T1 sequence: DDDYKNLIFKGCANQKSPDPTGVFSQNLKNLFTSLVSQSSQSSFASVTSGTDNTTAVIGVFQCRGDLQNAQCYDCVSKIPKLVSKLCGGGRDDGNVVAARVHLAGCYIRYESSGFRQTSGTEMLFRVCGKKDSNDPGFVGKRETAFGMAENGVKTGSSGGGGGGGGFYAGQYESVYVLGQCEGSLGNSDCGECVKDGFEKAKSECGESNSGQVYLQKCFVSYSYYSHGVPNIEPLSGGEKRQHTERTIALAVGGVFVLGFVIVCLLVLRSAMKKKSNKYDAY

B1: EMBRYO … 2719 (EMB2719), HAPLESS 15 (HAP15) (protein, UniProt Q9LNU4 1-488)
chain: MTQDVEMKDNNTPSQSIISSSTSTMQNLKEIAALIDTGSYTKEVRRIARAVRLTIGLRQKLTGSVLSSFLDFALVPGSEAHSRLSSFVPKGDEHDMEVDTASSATQAAPSKHLPAELEIYCYFIVLLFLIDQKKYNEAKACSSASIARLKNVNRRTIDVIASRLYFYYSLSYEQTGDLAEIRGTLLALHHSATLRHDELGQETLLNLLLRNYLHYNLYDQAEKLRSKAPRFEAHSNQQFCRYLFYLGKIRTIQLEYTDAKESLLQAARKAPIAALGFRIQCNKWAILVRLLLGEIPERSIFTQKGMEKALRPYFELTNAVRIGDLELFRTVQEKFLDTFAQDRTHNLIVRLRHNVIRTGLRNISISYSRISLPDVAKKLRLNSENPVADAESIVAKAIRDGAIDATIDHKNGCMVSKETGDIYSTNEPQTAFNSRIAFCLNMHNEAVRALRFPPNTHKEKESDEKRRERKQQEEELAKHMAEEDDDDF
B2: CALNEXIN 1 (CNX1) (protein, UniProt P29402 21-530)
chain: KLCYCDDQTVLYESFDEPFDGRWIVSKNSDYEGVWKHAKSEGHEDYGLLVSEKARKYGIVKELDEPLNLKEGTVVLQYEVRFQEGLECGGAYLKYLRPQEAGWTPQGFDSESPYSIMFGPDKCGGTNKVHFILKHKNPKSGEYVEHHLKFPPSVPYDKLSHVYTAILKPDNEVRILVDGEEKKKANLLSGEDFEPALIPAKTIPDPEDKKPEDWDERAKIPDPNAVKPEDWDEDAPMEIEDEEAEKPEGWLDDEPEEVDDPEATKPEDWDDEEDGMWEAPKIDNPKCEAAPGCGEWKRPMKRNPAYKGKWSSPLIDNPAYKGIWKPRDIPNPDYFELDRPDYEPIAAIGIEIWTMQDGILFDNILIAKDEKVAETYRQTTWKPKFDVEKEKQKAEEEAAGSADGLKSYQKVVFDLLNKVADLSFLSAYKSKITELIEKAEQQPNLTIGVLVAIVVVFFSLFLKLIFGGKKAAAPVEKKKPEVAESSKSGDEAEKKEETAAPRKRQPRRDN
B3: PLASMA MEMBRANE … PROTEIN 1B (PIP1;2) (protein, UniProt Q06611 1-286)
chain: MEGKEEDVRVGANKFPERQPIGTSAQSDKDYKEPPPAPLFEPGELASWSFWRAGIAEFIATFLFLYITVLTVMGVKRSPNMCASVGIQGIAWAFGGMIFALVYCTAGISGGHINPAVTFGLFLARKLSLTRAVYYIVMQCLGAICGAGVVKGFQPKQYQALGGGANTIAHGYTKGSGLGAEIIGTFVLVYTVFSATDAKRNARDSHVPILAPLPIGFAVFLVHLATIPITGTGINPARSLGAAIIFNKDNAWDDHWVFWVGPFIGAALAALYHVIVIRAIPFKSRS
B4: WALL-ASSOCIATED KINASE 2 (WAK2) (protein, UniProt Q9LMP1 24-732)
chain: QPRKECQTRCGNVAVEYPFGTSPGCYYPGDESFNLTCNEQEKLFFGNMPVINMSLSGQLRVRLVRSRVCYDSQGKQTDYIAQRTTLGNFTLSELNRFTVVGCNSYAFLRTSGVEKYSTGCISICDSATTKNGSCSGEGCCQIPVPRGYSFVRVKPHSFHNHPTVHLFNPCTYAFLVEDGMFDFHALEDLNNLRNVTTFPVVLDWSIGDKTCKQVEYRGVCGGNSTCFDSTGGTGYNCKCLEGFEGNPYLPNGCQDINECISSRHNCSEHSTCENTKGSFNCNCPSGYRKDSLNSCTRKVRPEYFRWTQIFLGTTIGFSVIMLGISCLQQKIKHRKNTELRQKFFEQNGGGMLIQRVSGAGPSNVDVKIFTEKGMKEATNGYHESRILGQGGQGTVYKGILPDNSIVAIKKARLGNRSQVEQFINEVLVLSQINHRNVVKVLGCCLETEVPLLVYEFINSGTLFDHLHGSLYDSSLTWEHRLRIATEVAGSLAYLHSSASIPIIHRDIKTANILLDKNLTAKVADFGASRLIPMDKEQLTTIVQGTLGYLDPEYYNTGLLNEKSDVYSFGVVLMELLSGQKALCFERPHCPKNLVSCFASATKNNRFHEIIDGQVMNEDNQREIQEAARIAAECTRLMGEERPRMKEVAAELEALRVKTTKYKWSDQYRETGEIEHLLGVQILSAQGETSSSIGYDSIRNVTTLDIEAGR
B5: VACUOLAR ATP SYNTHASE SUBUNIT E1 (VHA-E1) (protein, UniProt Q39258 1-230)
chain: MNDGDVSRQIQQMVRFIRQEAEEKANEISVSAEEEFNIEKLQLVEAEKKKIRQDYEKKEKQADVRKKIDYSMQLNASRIKVLQAQDDIVNAMKDQAAKDLLNVSRDEYAYKQLLKDLIVQCLLRLKEPSVLLRCREEDLGLVEAVLDDAKEEYAGKAKVHAPEVAVDTKIFLPPPPKSNDPHGLHCSGGVVLASRDGKIVCENTLDARLDVAFRMKLPVIRKSLFGQVTA
B6: WHITE-BROWN COMPLEX HOMOLOG PROTEIN 11 (WBC11) (protein, UniProt Q8RXN0 1-703)
chain: MEIEASRQQTTVPVSVGGGNFPVGGLSPLSEAIWREKAPTEFVGDVSARLTWQDLTVMVTMGDGETQNVLEGLTGYAEPGSLTALMGPSGSGKSTMLDALASRLAANAFLSGTVLLNGRKTKLSFGTAAYVTQDDNLIGTLTVRETIWYSARVRLPDKMLRSEKRALVERTIIEMGLQDCADTVIGNWHLRGISGGEKRRVSIALEILMRPRLLFLDEPTSGLDSASAFFVTQTLRALSRDGRTVIASIHQPSSEVFELFDRLYLLSGGKTVYFGQASDAYEFFAQAGFPCPALRNPSDHFLRCINSDFDKVRATLKGSMKLRFEASDDPLEKITTAEAIRLLVDYYHTSDYYYTAKAKVEEISQFKGTILDSGGSQASFLLQTYTLTKRSFINMSRDFGYYWLRLLIYILVTVCIGTIYLNVGTSYSAILARGSCASFVFGFVTFMSIGGFPSFVEDMKVFQRERLNGHYGVAAFVIANTLSATPFLIMITFISGTICYFMVGLHPGFTHYLFFVLCLYASVTVVESLMMAIASIVPNFLMGIIIGAGIQGIFMLVSGFFRLPNDIPKPFWRYPMSYISFHFWALQGQYQNDLRGLTFDSQGSAFKIPGEYVLENVFQIDLHRSKWINLSVILSMIIIYRIIFFIMIKTNEDVTPWVRGYIARRRMKQKNGTQNTTVAPDGLTQSPSLRNYIATRTDGARRW
B7: FIBRILLIN 4 (FIB4) (protein, UniProt Q9LW57 73-284)
chain: SSSGSGGDDKQIALLKLKLLSVVSGLNRGLVASVDDLERAEVAAKELETAGGPVDLTDDLDKLQGKWRLLYSSAFSSRSLGGSRPGLPTGRLIPVTLGQVFQRIDVFSKDFDNIAEVELGAPWPFPPLEATATLAHKFELLGTCKIKITFEKTTVKTSGNLSQIPPFDIPRLPDSFRPSSNPGTGDFEVTYVDDTMRITRGDRGELRVFVIA
B8: LIPID PHOSPHATE PHOSPHATASE 1 (ATPAP1) (protein, UniProt Q9ZU49 1-327)
chain: MTIGSFFSSLLFWRNSQDQEAQRGRMQEIDLSVHTIKSHGGRVASKHKHDWIILVILIAIEIGLNLISPFYRYVGKDMMTDLKYPFKDNTVPIWSVPVYAVLLPIIVFVCFYLKRTCVYDLHHSILGLLFAVLITGVITDSIKVATGRPRPNFYWRCFPDGKELYDALGGVVCHGKAAEVKEGHKSFPSGHTSWSFAGLTFLSLYLSGKIKAFNNEGHVAKLCLVIFPLLAACLVGISRVDDYWHHWQDVFAGALIGTLVAAFCYRQFYPNPYHEEGWGPYAYFKAAQERGVPVTSSQNGDALRAMSLQMDSTSLENMESGTSTAPR
B9: ATDJ1A, DJ-1 homolog (protein, UniProt Q9FPF0 1-392)
chain: MASFTKTVLIPIAHGTEPLEAVAMITVLRRGGADVTVASVETQVGVDACHGIKMVADTLLSDITDSVFDLIVLPGGLPGGETLKNCKSLENMVKKQDSDGRLNAAICCAPALALGTWGLLEGKKATGYPVFMEKLAATCATAVESRVQIDGRIVTSRGPGTTIEFSITLIEQLFGKEKADEVSSILLLRPNPGEEFTFTELNQTNWSFEDTPQILVPIAEESEEIEAIALVDILRRAKANVVIAAVGNSLEVEGSRKAKLVAEVLLDEVAEKSFDLIVLPGGLNGAQRFASCEKLVNMLRKQAEANKPYGGICASPAYVFEPNGLLKGKKATTHPVVSDKLSDKSHIEHRVVVDGNVITSRAPGTAMEFSLAIVEKFYGREKALQLGKATLV
B10: BETA-XYLOSIDASE 1 (BXL1) (protein, UniProt Q9FGY1 31-774)
chain: LRPLFACDPANGLTRTLRFCRANVPIHVRVQDLLGRLTLQEKIRNLVNNAAAVPRLGIGGYEWWSEALHGISDVGPGAKFGGAFPGATSFPQVITTAASFNQSLWEEIGRVVSDEARAMYNGGVAGLTYWSPNVNILRDPRWGRGQETPGEDPIVAAKYAASYVRGLQGTAAGNRLKVAACCKHYTAYDLDNWNGVDRFHFNAKVTQQDLEDTYNVPFKSCVYEGKVASVMCSYNQVNGKPTCADENLLKNTIRGQWRLNGYIVSDCDSVDVFFNQQHYTSTPEEAAARSIKAGLDLDCGPFLAIFTEGAVKKGLLTENDINLALANTLTVQMRLGMFDGNLGPYANLGPRDVCTPAHKHLALEAAHQGIVLLKNSARSLPLSPRRHRTVAVIGPNSDVTETMIGNYAGKACAYTSPLQGISRYARTLHQAGCAGVACKGNQGFGAAEAAAREADATVLVMGLDQSIEAETRDRTGLLLPGYQQDLVTRVAQASRGPVILVLMSGGPIDVTFAKNDPRVAAIIWAGYPGQAGGAAIANIIFGAANPGGKLPMTWYPQDYVAKVPMTVMAMRASGNYPGRTYRFYKGPVVFPFGFGLSYTTFTHSLAKSPLAQLSVSLSNLNSANTILNSSSHSIKVSHTNCNSFPKMPLHVEVSNTGEFDGTHTVFVFAEPPINGIKGLGVNKQLIAFEKVHVMAGAKQTVQVDVDACKHLGVVDEYGKRRIPMGEHKLHIGDLKHTILVQPQL

molecular target: T1, PLASMODESMATA-LOCATED PROTEIN 1 (PDLP1) fused to GFP (Arabidopsis); assay: affinity purification with mass spectrometry; PDLP1-GFP immunoprecipitated with GFP-Trap beads from leaf extracts of PDLP1 OE plants, Hpa-infected and uninfected; 50 mM Tris-HCl pH 7.5, 150 mM NaCl, 10% glycerol, 1 mM EDTA, 5 mM DTT, 1% IGEPAL CA630; 4°C, 2 h; bands from SDS-PAGE analysed by LC-MS/MS; at least three replicate IPs

Row | binding | Molecule
1 | binds | PHOSPHATE TRANSPORTER 3;1 (PHT3;1)
2 | binds | CLATHRIN HEAVY CHAIN 1 (CHC1) (from UniProt Q0WNJ6 1-1705)
3 | binds | BETA-TUBULIN 6 (TUB6) (from UniProt P29514 1-449)
4 | binds | BETA GLUCOSIDASE 38 (BGLU38) (from UniProt P37702 20-541)
5 | binds | [sequence] REDUCTASE 1 (MDAR1) (from UniProt Q9LFA3 1-434)
6 | binds | Coatomer, alpha subunit (from UniProt Q9SJT9)
7 | binds | translation elongation factor EF1B (from UniProt Q9FVT2)
8 | binds | BETA-TUBULIN 8 (TUB8) (from UniProt P29516 1-449)
9 | binds | UDP-GLUCOSE PYROPHOSPHORYLASE 1 (UGP) (from UniProt Q9M9P3)
10 | binds | BiP (BIP1) (from UniProt Q9LKR3 28-669)
11 | binds | B1
12 | binds | B2
13 | binds | B3
14 | binds | B4
15 | binds | B5
16 | binds | B6
17 | binds | B7
18 | binds | B8
19 | binds | B9
20 | binds | B10
